Data published in publication PMC8364686, “Safety, tolerability, pharmacokinetics and pharmacodynamics of single oral doses of BI 187004, an inhibitor of 11beta-hydroxysteroid dehydrogenase-1, in healthy male volunteers with overweight or obesity” (Clinical Diabetes and Endocrinology, 2021).
“And” between values parts separate entries of the source, which are not always exact repeats. Equal entries are not always repeated. This continues a long series; more values of the same kind are listed elsewhere.

Assay: Plasma pharmacokinetics of BI 187004 after single oral doses (LC–MS/MS)
Conditions: for BI 187004 plasma concentrations: individual subjects

N#Cc1ccc2c(c1)[C@H]1CCCN(C(=O)c3ccc4[nH]cnc4c3)[C@H]1C2 [BI 187004]
Plasma concentration, individual subjects (5 mg single oral, planned time 0.5 h): 180 nmol/L and 161 nmol/L and 128 nmol/L
Plasma concentration, individual subjects (5 mg single oral, planned time 1 h): 184 nmol/L and 191 nmol/L and 142 nmol/L
Plasma concentration, individual subjects (5 mg single oral, planned time 1.5 h): 143 nmol/L and 155 nmol/L and 124 nmol/L
Plasma concentration, individual subjects (5 mg single oral, planned time 2 h): 140 nmol/L and 142 nmol/L and 109 nmol/L
Plasma concentration, individual subjects (5 mg single oral, planned time 2.5 h): 139 nmol/L and 144 nmol/L and 120 nmol/L
Plasma concentration, individual subjects (5 mg single oral, planned time 3 h): 130 nmol/L and 138 nmol/L and 107 nmol/L
Plasma concentration, individual subjects (5 mg single oral, planned time 4 h): 124 nmol/L and 135 nmol/L and 95.1 nmol/L
Plasma concentration, individual subjects (5 mg single oral, planned time 5 h): 109 nmol/L and 122 nmol/L and 99.2 nmol/L
Plasma concentration, individual subjects (5 mg single oral, planned time 6 h): 106 nmol/L and 77.0 nmol/L
Plasma concentration, individual subjects (5 mg single oral, planned time 8 h): 93.4 nmol/L and 69.8 nmol/L
Plasma concentration, individual subjects (5 mg single oral, planned time 10 h): 77.9 nmol/L and 55.7 nmol/L
Plasma concentration, individual subjects (5 mg single oral, planned time 12 h): 49.0 nmol/L and 68.0 nmol/L and 43.3 nmol/L
Plasma concentration, individual subjects (5 mg single oral, planned time 24 h): 33.4 nmol/L and 43.0 nmol/L and 21.9 nmol/L
Plasma concentration, individual subjects (5 mg single oral, planned time 36 h): 16.9 nmol/L and 20.8 nmol/L and 8.76 nmol/L
Plasma concentration, individual subjects (5 mg single oral, planned time 48 h): 10.7 nmol/L and 15.9 nmol/L and 8.90 nmol/L
Plasma concentration, individual subjects (5 mg single oral, planned time 72 h): 6.47 nmol/L and 9.09 nmol/L and 5.40 nmol/L
Plasma concentration, individual subjects (5 mg single oral, planned time 96 h): 4.03 nmol/L and 5.22 nmol/L and 4.10 nmol/L
Plasma concentration, individual subjects (10 mg single oral, planned time 0.5 h): 252 nmol/L and 44.7 nmol/L and 460 nmol/L and 560 nmol/L and 605 nmol/L and 266 nmol/L
Plasma concentration, individual subjects (10 mg single oral, planned time 1 h): 397 nmol/L and 402 nmol/L and 424 nmol/L and 467 nmol/L and 363 nmol/L
Plasma concentration, individual subjects (10 mg single oral, planned time 1.5 h): 437 nmol/L and 420 nmol/L and 360 nmol/L and 439 nmol/L and 432 nmol/L
Plasma concentration, individual subjects (10 mg single oral, planned time 2 h): 403 nmol/L and 349 nmol/L and 313 nmol/L and 395 nmol/L and 396 nmol/L
Plasma concentration, individual subjects (10 mg single oral, planned time 2.5 h): 362 nmol/L and 323 nmol/L and 292 nmol/L and 399 nmol/L and 438 nmol/L
Plasma concentration, individual subjects (10 mg single oral, planned time 3 h): 323 nmol/L and 304 nmol/L and 283 nmol/L and 344 nmol/L and 373 nmol/L
Plasma concentration, individual subjects (10 mg single oral, planned time 4 h): 280 nmol/L and 385 nmol/L and 249 nmol/L and 351 nmol/L and 401 nmol/L
Plasma concentration, individual subjects (10 mg single oral, planned time 5 h): 223 nmol/L and 206 nmol/L and 229 nmol/L and 314 nmol/L and 335 nmol/L
Plasma concentration, individual subjects (10 mg single oral, planned time 6 h): 214 nmol/L and 204 nmol/L and 271 nmol/L and 302 nmol/L
Plasma concentration, individual subjects (10 mg single oral, planned time 8 h): 170 nmol/L and 199 nmol/L and 148 nmol/L and 234 nmol/L and 284 nmol/L
Plasma concentration, individual subjects (10 mg single oral, planned time 10 h): 231 nmol/L and 118 nmol/L and 150 nmol/L and 132 nmol/L and 208 nmol/L and 250 nmol/L
Plasma concentration, individual subjects (10 mg single oral, planned time 12 h): 195 nmol/L and 115 nmol/L and 121 nmol/L and 84.7 nmol/L and 187 nmol/L and 173 nmol/L
Plasma concentration, individual subjects (10 mg single oral, planned time 24 h): 112 nmol/L and 46.4 nmol/L and 67.2 nmol/L and 39.1 nmol/L and 92.8 nmol/L and 104 nmol/L
Plasma concentration, individual subjects (10 mg single oral, planned time 36 h): 47.8 nmol/L and 14.1 nmol/L and 21.6 nmol/L and 12.8 nmol/L and 37.5 nmol/L and 47.4 nmol/L
Plasma concentration, individual subjects (10 mg single oral, planned time 48 h): 35.7 nmol/L and 12.8 nmol/L and 15.5 nmol/L and 11.2 nmol/L and 29.2 nmol/L and 32.5 nmol/L
Plasma concentration, individual subjects (10 mg single oral, planned time 72 h): 14.8 nmol/L and 6.84 nmol/L and 8.55 nmol/L and 5.11* nmol/L and 9.36 nmol/L and 13.9 nmol/L
Plasma concentration, individual subjects (10 mg single oral, planned time 96 h): 8.06 nmol/L and 3.64 nmol/L and 5.09 nmol/L and 3.04* nmol/L and 4.52 nmol/L and 7.31 nmol/L
BI 187004 plasma concentrations (20 mg single oral, planned time 0.5 h): 989 nmol/L and 34.3 nmol/L and 80.7 nmol/L and 338 nmol/L and 91.1 nmol/L and 1050 nmol/L
BI 187004 plasma concentrations (20 mg single oral, planned time 1 h): 1130 nmol/L and 236 nmol/L and 1100 nmol/L and 750 nmol/L and 965 nmol/L
BI 187004 plasma concentrations (20 mg single oral, planned time 1.5 h): 919 nmol/L and 842 nmol/L and 1050 nmol/L and 824 nmol/L and 969 nmol/L
BI 187004 plasma concentrations (20 mg single oral, planned time 2 h): 832 nmol/L and 784 nmol/L and 966 nmol/L and 630 nmol/L and 947 nmol/L
BI 187004 plasma concentrations (20 mg single oral, planned time 2.5 h): 783 nmol/L and 710 nmol/L and 1040 nmol/L and 619 nmol/L and 948 nmol/L
BI 187004 plasma concentrations (20 mg single oral, planned time 3 h): 663 nmol/L and 586 nmol/L and 877 nmol/L and 610 nmol/L and 879 nmol/L
BI 187004 plasma concentrations (20 mg single oral, planned time 4 h): 663 nmol/L and 537 nmol/L and 885 nmol/L and 531 nmol/L and 833 nmol/L
BI 187004 plasma concentrations (20 mg single oral, planned time 5 h): 512 nmol/L and 463 nmol/L and 883 nmol/L and 535 nmol/L and 753 nmol/L
BI 187004 plasma concentrations (20 mg single oral, planned time 6 h): 847 nmol/L and 447 nmol/L and 420 nmol/L and 611 nmol/L and 427 nmol/L and 646 nmol/L
BI 187004 plasma concentrations (20 mg single oral, planned time 8 h): 378 nmol/L and 359 nmol/L and 631 nmol/L and 418 nmol/L and 354 nmol/L
BI 187004 plasma concentrations (20 mg single oral, planned time 10 h): 524 nmol/L and 335 nmol/L and 253 nmol/L and 529 nmol/L and 288 nmol/L and 461 nmol/L
BI 187004 plasma concentrations (20 mg single oral, planned time 12 h): 450 nmol/L and 251 nmol/L and 234 nmol/L and 457 nmol/L and 221 nmol/L and 370 nmol/L
BI 187004 plasma concentrations (20 mg single oral, planned time 24 h): 353 nmol/L and 107 nmol/L and 95.1 nmol/L and 281 nmol/L and 85.8 nmol/L and 203 nmol/L
BI 187004 plasma concentrations (20 mg single oral, planned time 36 h): 145 nmol/L and 33.6 nmol/L and 27.8 nmol/L and 96.8 nmol/L and 32.3 nmol/L and 68.5 nmol/L
BI 187004 plasma concentrations (20 mg single oral, planned time 48 h): 104 nmol/L and 21.7 nmol/L and 19.4 nmol/L and 65.7 nmol/L and 15.8 nmol/L and 47.0 nmol/L
BI 187004 plasma concentrations (20 mg single oral, planned time 72 h): 43.9 nmol/L and 9.53 nmol/L and 25.9 nmol/L and 6.98 nmol/L and 16.4 nmol/L
BI 187004 plasma concentrations (20 mg single oral, planned time 96 h): 18.2 nmol/L and 6.00 nmol/L and 5.78 nmol/L and 12.4 nmol/L and 9.48 nmol/L
BI 187004 plasma concentrations (40 mg single oral, planned time 0.5 h): 2530 nmol/L and 2400 nmol/L and 2460 nmol/L and 1110 nmol/L and 487 nmol/L and 1560 nmol/L
BI 187004 plasma concentrations (40 mg single oral, planned time 1 h): 2820 nmol/L and 2490 nmol/L and 2320 nmol/L and 2690 nmol/L and 974 nmol/L and 1730 nmol/L
BI 187004 plasma concentrations (40 mg single oral, planned time 1.5 h): 2610 nmol/L and 2240 nmol/L and 2220 nmol/L and 2090 nmol/L and 1020 nmol/L and 1540 nmol/L
BI 187004 plasma concentrations (40 mg single oral, planned time 2 h): 2410 nmol/L and 1900 nmol/L and 2020 nmol/L and 1820 nmol/L and 1040 nmol/L and 1360 nmol/L
BI 187004 plasma concentrations (40 mg single oral, planned time 2.5 h): 2010 nmol/L and 1920 nmol/L and 1820 nmol/L and 1160 nmol/L and 1420 nmol/L
BI 187004 plasma concentrations (40 mg single oral, planned time 3 h): 1810 nmol/L and 1440 nmol/L and 1430 nmol/L and 1130 nmol/L
BI 187004 plasma concentrations (40 mg single oral, planned time 4 h): 1650 nmol/L and 1700 nmol/L and 1410 nmol/L and 1320 nmol/L and 1020 nmol/L
BI 187004 plasma concentrations (40 mg single oral, planned time 5 h): 1610 nmol/L and 1550 nmol/L and 1160 nmol/L and 1250 nmol/L and 888 nmol/L
BI 187004 plasma concentrations (40 mg single oral, planned time 6 h): 1320 nmol/L and 1400 nmol/L and 985 nmol/L and 1020 nmol/L and 736 nmol/L
BI 187004 plasma concentrations (40 mg single oral, planned time 8 h): 1190 nmol/L and 1100 nmol/L and 834 nmol/L and 973 nmol/L and 606 nmol/L
BI 187004 plasma concentrations (40 mg single oral, planned time 10 h): 806 nmol/L and 1140 nmol/L and 975 nmol/L and 738 nmol/L and 823 nmol/L and 467 nmol/L
BI 187004 plasma concentrations (40 mg single oral, planned time 12 h): 663 nmol/L and 984 nmol/L and 838 nmol/L and 538 nmol/L and 716 nmol/L and 359 nmol/L
BI 187004 plasma concentrations (40 mg single oral, planned time 24 h): 291 nmol/L and 625 nmol/L and 436 nmol/L and 215 nmol/L and 379 nmol/L and 169 nmol/L
BI 187004 plasma concentrations (40 mg single oral, planned time 36 h): 99.1 nmol/L and 377 nmol/L and 244 nmol/L and 70.1 nmol/L and 138 nmol/L and 51.5 nmol/L
BI 187004 plasma concentrations (40 mg single oral, planned time 48 h): 60.3 nmol/L and 234 nmol/L and 143 nmol/L and 30.8 nmol/L and 72.0 nmol/L and 33.7 nmol/L
BI 187004 plasma concentrations (40 mg single oral, planned time 72 h): 22.1 nmol/L and 83.4 nmol/L and 41.8 nmol/L and 8.48 nmol/L and 22.0 nmol/L and 14.2 nmol/L
BI 187004 plasma concentrations (40 mg single oral, planned time 96 h): 13.3 nmol/L and 41.4 nmol/L and 16.0 nmol/L and 5.05 nmol/L and 8.34 nmol/L and 8.88 nmol/L
